# According to PubChem BioAssay AID540276 (National Center for Advancing Translational Sciences (NCATS), 2011):
# Several values for one entry are separate records, joined by “and”; a condition that tells them apart may be missing. Equal values may be shown once. About 5,400 (1.8%) of roughly 300,000 compounds were called active. The shares of active, inactive and inconclusive entries below differ from those in the screen. The call rests on the fitted dose curve; tested in HEK293 cells. Where the call is inconclusive, the potency comes from a doubtful curve fit.
# Experiment: qHTS for inhibitors of binding or entry into cells for Marburg Virus
# Conditions: Marburg virus pseudotyped entry inhibition, cell reporter; activity change, negative = inhibition: at 37.8 µM (top of the series) unless noted
# On the % scale 0 is the no-effect control and ±100 the full control effect; potency means the concentration at half of the fitted maximal effect.
Compound,Potency,"activity change, negative = inhibition"
O=S(=O)(NC1CCN(Cc2ccccc2)CC1)c1ccc2ccccc2c1,"inconclusive: 15.8 µM [inhibitor, single point]",–
CCc1ccccc1NC(=O)CN(C)C(=O)CSc1nnc(Nc2cccc(C)c2)s1,"inconclusive: 0.0517 µM [inhibitor, full curve, poor fit]",–
CCOc1ccc(NC(=O)Nc2nnc(N3CCCCC3C)s2)cc1 (centres undefined),"inconclusive: 7.08 µM [activator, partial curve, poor fit]",–
COc1cccc(/C=N/NC(=O)c2ccncc2)c1OC(=O)c1ccc(Br)cc1,"inconclusive: 22.4 µM [inhibitor, single point]",–
CCOC(=O)C1(Cc2cccc(Cl)c2)CCCN(CCO)C1 (centres undefined),"inconclusive: 6.31 µM [activator, single point]",–
Cc1csc(NC(=O)c2cc([N+](=O)[O-])cc([N+](=O)[O-])c2)n1,–,inactive: 0.655%
CNc1nc(-c2ccccc2)[n+](-c2ccc(C)cc2)s1,–,inactive: 3.15%
Cc1cccn2c(=O)nc(SCC(=O)NC3CCCCC3)nc12,–,inactive: -12.9% [at 46.1 µM]
c1csc(-c2nc3nc4ccccc4nc3n2Cc2ccc3c(c2)OCO3)c1,"inconclusive: 35.5 µM [inhibitor, single point]",–
O=C(CCc1nc2sc3c(c2c(=O)[nH]1)CCCC3)NCCOc1ccccc1,–,inactive: 19.7%
CC(C)(C)C1CCCCC1NC(=O)c1ccncc1 (centres undefined),–,inactive: -4.94% [at 46.1 µM]
CCN1CCCC1CNC(=O)c1ccc(Sc2ccc(F)cc2)c([N+](=O)[O-])c1 (centres undefined),active: 6.31 µM,–
COc1ccc(NCc2cc3cc(OC)ccc3[nH]c2=O)cc1,–,inactive: -19.6%
OCCOCCOc1cccc2[nH]ccc12,"inconclusive: 6.31 µM [activator, full curve, poor fit]",–
O=C(COc1ccc([N+](=O)[O-])cc1)Nc1nc(-c2ccccn2)cs1,"inconclusive: 31.6 µM [inhibitor, single point]",–
Cc1ccc(CNS(=O)(=O)c2c(C(=O)N3CCCCC3)c(C)n(C)c2C)cc1,–,inactive: -2.45% [at 46.1 µM]
CNC(=O)c1ccc(-c2ccc(Cl)c(Cl)c2)s1,"inconclusive: 5.62 µM [activator, single point]",–
Cc1ccc2ccc3cccnc3c2n1,"inconclusive: 3.55 µM [inhibitor, full curve, poor fit]",–
CC(=O)c1cccc(NC(=O)c2nc(-c3ccccc3)oc2C)c1,–,inactive: -1.7% [at 46.1 µM]
C=C(C)C(=O)OC[C@H]1CN2[C@H](c3ccc(Br)cc3)[C@H](C)CC[C@H]2C(=O)O1,"inconclusive: 0.0106 µM [inhibitor, full curve, poor fit]",–
O=C(C1CCCN(S(=O)(=O)c2ccccc2[N+](=O)[O-])C1)N1CCN(c2ccccc2)CC1 (centres undefined),"inconclusive: 0.631 µM [inhibitor, partial curve, poor fit]",–
COc1ccc(C(=O)COC(=O)/C=C/c2ccccc2[N+](=O)[O-])cc1,–,inactive: -0.0575%
CCOC(=O)c1ccc(N2C(=O)C(O)=C(C(C)=O)C2c2ccccc2)cc1 (centres undefined),"inconclusive: 2.51 µM [inhibitor, single point]",–

# Reformatted tab-delimited: entries from further up.
Compound	Potency	activity change, negative = inhibition
O=S(=O)(NC1CCN(Cc2ccccc2)CC1)c1ccc2ccccc2c1	inconclusive: 15.8 µM [inhibitor, single point]	–
OCCOCCOc1cccc2[nH]ccc12	inconclusive: 6.31 µM [activator, full curve, poor fit]	–

# Further results.

Compound,Potency,"activity change, negative = inhibition"
CCN(CC)S(=O)(=O)c1cccc(-c2nnc(SCCCC(=O)c3ccccc3)o2)c1,"inactive and inconclusive: 29.1 µM [inhibitor, partial curve, poor fit]",–
COc1ccc(O)c(C2=Nc3ccccc3N=C(c3cccs3)C2)c1,–,inactive: 5.36%
Cc1ccc(NC(=O)c2cccc3c(=O)c4c([nH]c23)CCCC4)c(C)c1,"inconclusive: 31.6 µM [activator, single point]",–
O=c1[nH]c(=O)n(CCC2=CCCCC2)c(O)c1C=NCCN1CCNCC1,–,inactive: 8.16%
CCOC(=O)COc1ccccc1/C=C1/NC(=O)NC1=O,–,inactive: -1.18%
O=C(O)CCn1c(SCc2ccccc2)nc2ccccc21,–,inactive: -0.989%
O=C(O)CCC(=O)NNC(=O)COc1ccc2ccccc2c1Br,–,inactive: 10.4% [at 46.1 µM]
CCOC(=O)Cn1c(=O)oc2cc(S(=O)(=O)N3CCN(c4cccc(Cl)c4)CC3)ccc21,–,inactive: 12.6% [at 46.1 µM]
O=C(Oc1ccc(C(=S)N2CCOCC2)cc1)c1cccc(Cl)c1,–,inactive: 15.7%
O=C(CSCc1ccccc1)N1CCN(c2ccccc2)CC1,"inconclusive: 13 µM [activator, single point]",–
CC(C)(C)NC(=O)/C(=C\C=C\c1ccccc1)NC(=O)c1ccc([N+](=O)[O-])cc1,"inconclusive: 3.98 µM [inhibitor, single point]",–
COc1ccc2[nH]c3c(=O)n4c(nc3c2c1)SCCC4,"inconclusive: 1.78 µM [inhibitor, partial curve, poor fit]",–
O=C(N[C@@H](Cc1ccccc1)C(=O)Nc1ccc(F)cc1)C1CCNCC1,–,inactive: 8.97% [at 46.1 µM]
COc1ccc(-c2cccc(C(=O)Nc3cccc(C(=O)O)c3)c2)cc1,"inconclusive: 11.2 µM [inhibitor, single point]",–
Cc1cc(C)c(Cn2c(=O)n(CCC(=O)NCCc3ccccc3)c(=O)c3ccccc32)c(C)c1,–,inactive: -23.7% [at 46.1 µM]
CCOc1ccccc1C(=O)NC(C(=O)NCc1ccc(F)cc1)C(C)C (centres undefined),–,inactive: 12.6% [at 46.1 µM]
O=C(COC(=O)C1(c2ccc(F)cc2)CCCC1)NCc1ccc2c(c1)OCO2,"inconclusive: 32.6 µM [inhibitor, partial curve, poor fit]",–
COc1ccccc1NC(=S)N(C(C)C)C(C)c1ccccn1 (centres undefined),"inconclusive: 12.6 µM [activator, partial curve, poor fit]",–
CN(C)c1ccc(C=NNC(=S)Nc2ccc(F)cc2)cc1,"inconclusive: 1.41 µM [activator, partial curve, poor fit]",–
Cc1cccc(Cn2ccc(NC(=O)c3ccc4c(c3)OCO4)n2)c1,"inconclusive: 2.51 µM [activator, partial curve, poor fit]",–
CC(=O)N1CCc2c(sc3c2c(=O)n(Cc2ccccc2)c(=O)n3Cc2ccc(Cl)cc2)C1,"inconclusive: 14.1 µM [activator, partial curve, poor fit]",–
COc1ccc(-n2c(=O)c3c4c(sc3n(Cc3ccc(F)cc3)c2=O)CN(C(C)=O)CC4)c(OC)c1,–,inactive: 34.7% [at 46.1 µM]
CNC(=S)N(C)CCc1cc2c(c(OC)c1C=C1C(=O)NC(=O)NC1=O)OCO2,–,inactive: -14.7% [at 46.1 µM]

Compound,Potency,"activity change, negative = inhibition"
Cc1ccc(C(CCNC(C)c2cccs2)c2ccco2)cc1 (centres undefined),"inconclusive: 17.8 µM [inhibitor, partial curve, poor fit]",–
COC(=O)c1ccc(-c2ccc(/C=N/NC(=O)Cc3nnc(N)s3)o2)cc1,"inconclusive: 12.6 µM [activator, single point]",–
CCCc1ccc(OCc2nc(-c3ccc(NC(=O)c4ccco4)cc3)no2)cc1,"inconclusive: 35.5 µM [inhibitor, single point]",–
COc1ccc(-c2[nH]ncc2CN2CCCC(C(=O)c3cccc(OC)c3)C2)cc1 (centres undefined),"inconclusive: 35.5 µM [inhibitor, partial curve, poor fit]",–
O=C(NCCOc1ccccc1)O[C@@H]1C(=O)c2cc(Br)ccc2O[C@H]1c1ccc2c(c1)OCO2,"inconclusive: 0.75 µM [inhibitor, full curve, poor fit]",–
Cc1nnsc1C(=O)NNS(=O)(=O)c1ccccc1,"inconclusive: 2.51 µM [activator, partial curve, poor fit]",–
Cc1ccc(-c2cc3cccc[n+]3cc2-c2ccc(C)cc2)cc1,active: 3.16 µM,–
CCCCCc1ccc(-c2ccc(C(=O)O)cc2)nc1,"inconclusive: 18.3 µM [inhibitor, single point]",–
CCc1ccc2oc(-c3ccc(C)c(NC(=O)c4cc([N+](=O)[O-])ccc4N4CCOCC4)c3)nc2c1,"inconclusive: 1.12 µM [inhibitor, full curve, poor fit]",–
Cc1cccn2c(=O)c3cc(C(=O)NCCCn4ccnc4)n(C)c3nc12,"inconclusive: 35.5 µM [inhibitor, single point]",–
CC(=O)Nc1ccc(SCC(=O)c2cc(C)n(-c3ccccc3F)c2C)cc1,active: 6.51 µM,–
Cc1cc(NC(=O)c2cc(C)on2)n(-c2ccccc2)n1,"inconclusive: 3.16 µM [activator, partial curve, poor fit]",–
CCOC(=O)C1CN(C(C)(C)C)C(=O)C1=O (centres undefined),"inconclusive: 11.2 µM [activator, partial curve]",–
CCOc1ccc(NS(=O)(=O)c2ccc(C(=O)NCCCN3CCCC3=O)cc2)cc1,"inconclusive: 7.08 µM [inhibitor, partial curve, poor fit]",–
Cc1sc(-n2c(C)cc(/C=N/n3cnnc3)c2C)c(C#N)c1C,–,inactive: -26.1%
O=C(CNC(=O)c1ccc(Br)o1)Nc1ccc(N2CCCCCC2)cc1,–,inactive: -23.8%
O=C(Nc1nc(-c2ccccn2)cs1)c1ncc(Cl)c(Cl)c1Cl,–,inactive: -26.3%
CC(C)c1ccc(NC(=O)CN(Cc2ccccc2)S(C)(=O)=O)cc1,"inconclusive: 15.8 µM [inhibitor, partial curve, poor fit]",–
COc1ccc2cc(Br)ccc2c1CC(=O)NC1CC(C)(C)NC(C)(C)C1,active: 18.3 µM,–
CCOc1ccc(C2C(C(=O)Nc3ccccc3)=C(C)N=c3s/c(=C/c4cccc(OCC(=O)O)c4)c(=O)n32)cc1 (centres undefined),–,inactive: 12.5% [at 46.1 µM]
CC1(C)CC(=O)C(C=NCCN2CCN(C(=S)NC3CCCCC3)CC2)=C(O)C1,"inconclusive: 7.08 µM [activator, full curve, poor fit]",–
CCn1c(SCC(=O)Nc2sc(C)c(C)c2C#N)nnc1C(C)C,–,inactive: -19.6% [at 46.1 µM]
COc1ccc([C@]23Cc4cc(OC)c(OC)cc4[C@H](O2)c2c(c4ccccc4oc2=O)O3)cc1,"inconclusive: 0.0024 µM [activator, full curve, poor fit]",–
